Measured values published in US20190275087A1, “EXPANSION AND DIFFERENTIATION OF STEM CELLS” (Allergan Pharmaceuticals International Limited, priority 2018, published 2019).
Results are given in words; binding and its absence hold for the method and conditions named. Some entries that bind do so weakly or less than the wild type.

Sequences of proteins named here, by UniProt entry; tags and fusion partners are left off. A change or cut given only in a name is not applied to a line headed by its entry. A line that says so, or that is headed by a name, gives the form on record, which may keep a tag or linker.
UniProt P06756: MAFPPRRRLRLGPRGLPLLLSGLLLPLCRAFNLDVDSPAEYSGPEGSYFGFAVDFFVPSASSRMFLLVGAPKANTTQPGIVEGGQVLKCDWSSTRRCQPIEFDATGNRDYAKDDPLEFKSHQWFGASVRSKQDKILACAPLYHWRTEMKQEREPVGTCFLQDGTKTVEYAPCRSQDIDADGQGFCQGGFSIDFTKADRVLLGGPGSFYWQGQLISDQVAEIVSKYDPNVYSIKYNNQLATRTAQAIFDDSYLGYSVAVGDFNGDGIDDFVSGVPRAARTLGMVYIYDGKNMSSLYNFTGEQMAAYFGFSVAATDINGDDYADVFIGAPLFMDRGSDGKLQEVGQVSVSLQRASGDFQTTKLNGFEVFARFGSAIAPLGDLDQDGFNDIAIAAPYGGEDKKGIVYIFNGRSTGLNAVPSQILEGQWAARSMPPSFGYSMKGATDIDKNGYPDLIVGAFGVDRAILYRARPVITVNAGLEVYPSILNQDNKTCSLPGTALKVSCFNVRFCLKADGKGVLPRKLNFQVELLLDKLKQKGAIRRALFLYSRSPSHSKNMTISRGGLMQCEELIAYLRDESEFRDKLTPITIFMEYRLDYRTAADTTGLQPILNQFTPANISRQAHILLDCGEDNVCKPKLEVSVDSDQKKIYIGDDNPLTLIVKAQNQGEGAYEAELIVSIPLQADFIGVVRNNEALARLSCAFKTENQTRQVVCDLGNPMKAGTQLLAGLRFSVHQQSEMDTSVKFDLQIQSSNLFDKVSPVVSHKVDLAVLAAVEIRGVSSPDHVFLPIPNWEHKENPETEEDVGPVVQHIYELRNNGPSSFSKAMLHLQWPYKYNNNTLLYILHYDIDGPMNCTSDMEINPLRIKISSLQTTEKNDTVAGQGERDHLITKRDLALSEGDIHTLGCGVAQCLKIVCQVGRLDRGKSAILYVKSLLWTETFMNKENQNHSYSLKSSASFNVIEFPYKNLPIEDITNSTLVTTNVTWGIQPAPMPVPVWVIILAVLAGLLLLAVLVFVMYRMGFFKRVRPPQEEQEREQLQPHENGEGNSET
UniProt P18084: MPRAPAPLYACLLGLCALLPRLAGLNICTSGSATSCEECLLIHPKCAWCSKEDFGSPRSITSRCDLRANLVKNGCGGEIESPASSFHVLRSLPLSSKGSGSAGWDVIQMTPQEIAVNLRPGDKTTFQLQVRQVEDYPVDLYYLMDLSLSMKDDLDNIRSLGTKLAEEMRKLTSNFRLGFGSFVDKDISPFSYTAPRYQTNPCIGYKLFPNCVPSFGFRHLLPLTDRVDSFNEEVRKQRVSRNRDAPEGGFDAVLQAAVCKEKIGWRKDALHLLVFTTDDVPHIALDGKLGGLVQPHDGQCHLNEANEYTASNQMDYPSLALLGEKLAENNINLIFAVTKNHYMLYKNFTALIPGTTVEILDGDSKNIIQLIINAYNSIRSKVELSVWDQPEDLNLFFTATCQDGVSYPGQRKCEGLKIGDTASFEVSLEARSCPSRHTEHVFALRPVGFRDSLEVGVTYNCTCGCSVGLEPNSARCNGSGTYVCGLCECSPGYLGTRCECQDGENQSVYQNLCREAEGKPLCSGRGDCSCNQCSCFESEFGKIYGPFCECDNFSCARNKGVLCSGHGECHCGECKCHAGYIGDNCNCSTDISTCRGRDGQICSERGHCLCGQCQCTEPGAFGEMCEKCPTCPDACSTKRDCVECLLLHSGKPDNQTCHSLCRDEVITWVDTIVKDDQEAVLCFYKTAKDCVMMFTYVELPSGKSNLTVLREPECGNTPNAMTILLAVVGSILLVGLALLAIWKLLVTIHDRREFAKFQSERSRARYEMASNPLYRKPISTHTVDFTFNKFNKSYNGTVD
UniProt P05106: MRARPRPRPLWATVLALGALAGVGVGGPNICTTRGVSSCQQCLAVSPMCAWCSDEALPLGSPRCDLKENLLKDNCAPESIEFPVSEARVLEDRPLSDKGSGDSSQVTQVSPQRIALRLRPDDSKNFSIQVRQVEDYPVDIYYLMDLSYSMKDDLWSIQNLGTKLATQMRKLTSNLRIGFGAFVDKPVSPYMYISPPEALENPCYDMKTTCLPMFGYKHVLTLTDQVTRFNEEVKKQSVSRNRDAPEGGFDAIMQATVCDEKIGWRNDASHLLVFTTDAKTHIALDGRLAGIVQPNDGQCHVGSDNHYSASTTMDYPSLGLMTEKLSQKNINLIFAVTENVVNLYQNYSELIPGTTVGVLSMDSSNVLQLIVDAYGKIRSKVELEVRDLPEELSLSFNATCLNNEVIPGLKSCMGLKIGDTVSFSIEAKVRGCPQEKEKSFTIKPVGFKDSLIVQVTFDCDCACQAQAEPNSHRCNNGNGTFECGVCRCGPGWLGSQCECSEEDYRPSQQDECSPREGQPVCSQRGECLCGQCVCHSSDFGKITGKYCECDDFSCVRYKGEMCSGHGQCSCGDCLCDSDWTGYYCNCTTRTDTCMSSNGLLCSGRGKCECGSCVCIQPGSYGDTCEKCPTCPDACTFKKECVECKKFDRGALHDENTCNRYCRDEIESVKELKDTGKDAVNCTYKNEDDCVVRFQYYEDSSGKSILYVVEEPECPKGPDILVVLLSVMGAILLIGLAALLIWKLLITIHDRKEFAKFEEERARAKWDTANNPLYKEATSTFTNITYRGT
recombinant human tropoelastin (Elastagen) (P15502, form named): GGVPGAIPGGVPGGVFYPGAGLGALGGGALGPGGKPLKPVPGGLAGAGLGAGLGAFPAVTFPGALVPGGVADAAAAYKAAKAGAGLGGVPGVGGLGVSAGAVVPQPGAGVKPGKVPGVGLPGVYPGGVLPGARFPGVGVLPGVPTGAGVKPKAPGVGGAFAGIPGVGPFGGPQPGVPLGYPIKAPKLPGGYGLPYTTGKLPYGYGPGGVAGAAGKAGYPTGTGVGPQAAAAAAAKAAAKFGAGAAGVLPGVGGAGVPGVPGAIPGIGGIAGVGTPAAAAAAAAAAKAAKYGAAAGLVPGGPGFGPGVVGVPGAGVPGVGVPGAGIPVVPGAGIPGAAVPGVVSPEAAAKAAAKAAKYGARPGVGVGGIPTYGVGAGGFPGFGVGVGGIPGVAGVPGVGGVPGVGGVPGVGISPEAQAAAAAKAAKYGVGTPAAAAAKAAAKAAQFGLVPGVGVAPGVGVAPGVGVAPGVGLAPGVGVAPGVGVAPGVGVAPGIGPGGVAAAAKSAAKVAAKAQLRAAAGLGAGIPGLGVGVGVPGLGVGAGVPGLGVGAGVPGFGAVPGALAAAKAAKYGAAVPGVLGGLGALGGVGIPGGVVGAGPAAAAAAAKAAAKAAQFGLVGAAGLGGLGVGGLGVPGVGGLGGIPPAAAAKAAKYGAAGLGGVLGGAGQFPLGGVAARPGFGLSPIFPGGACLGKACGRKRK

Key:
[1] = target: integrin αvβ5 on human bone marrow-derived MSCs (human) (UniProt P06756+P18084); assay: inferred from antibody blocking of MSC spreading, proliferation and migration
[2] = target: integrin αvβ3 on human bone marrow-derived MSCs (human) (UniProt P06756+P05106); assay: as above

recombinant human tropoelastin (Elastagen) (from UniProt P15502 27-724) (ligand)
binding [1]: binds
binding [2]: binds
